Assay results taken from publication PMC10474093.
Results are given in words; binding and its absence hold for the method and conditions named. In cells and extracts the contact can be indirect. Some entries that bind do so weakly or less than the wild type.

Amino acid sequences for entries named in this document (tags omitted). Residues count along the entry.
UniProt P11021, residues 19-654: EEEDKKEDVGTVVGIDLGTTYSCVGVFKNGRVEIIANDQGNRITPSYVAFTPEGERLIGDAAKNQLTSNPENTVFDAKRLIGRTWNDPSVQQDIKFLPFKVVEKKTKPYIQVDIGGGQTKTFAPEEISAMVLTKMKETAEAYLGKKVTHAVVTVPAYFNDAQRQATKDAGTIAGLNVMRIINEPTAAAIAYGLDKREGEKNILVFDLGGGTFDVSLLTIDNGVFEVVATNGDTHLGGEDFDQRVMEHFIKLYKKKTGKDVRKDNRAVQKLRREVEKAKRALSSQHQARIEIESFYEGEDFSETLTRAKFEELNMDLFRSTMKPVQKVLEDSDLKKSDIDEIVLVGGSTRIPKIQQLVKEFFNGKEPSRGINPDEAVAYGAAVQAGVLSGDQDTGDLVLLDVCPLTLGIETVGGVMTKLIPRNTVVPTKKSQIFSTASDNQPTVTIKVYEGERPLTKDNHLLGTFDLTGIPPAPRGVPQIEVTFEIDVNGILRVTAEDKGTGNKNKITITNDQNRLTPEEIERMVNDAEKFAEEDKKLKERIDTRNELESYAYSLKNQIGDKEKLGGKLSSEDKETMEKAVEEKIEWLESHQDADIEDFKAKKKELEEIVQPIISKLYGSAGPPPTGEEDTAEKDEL
UniProt P33527: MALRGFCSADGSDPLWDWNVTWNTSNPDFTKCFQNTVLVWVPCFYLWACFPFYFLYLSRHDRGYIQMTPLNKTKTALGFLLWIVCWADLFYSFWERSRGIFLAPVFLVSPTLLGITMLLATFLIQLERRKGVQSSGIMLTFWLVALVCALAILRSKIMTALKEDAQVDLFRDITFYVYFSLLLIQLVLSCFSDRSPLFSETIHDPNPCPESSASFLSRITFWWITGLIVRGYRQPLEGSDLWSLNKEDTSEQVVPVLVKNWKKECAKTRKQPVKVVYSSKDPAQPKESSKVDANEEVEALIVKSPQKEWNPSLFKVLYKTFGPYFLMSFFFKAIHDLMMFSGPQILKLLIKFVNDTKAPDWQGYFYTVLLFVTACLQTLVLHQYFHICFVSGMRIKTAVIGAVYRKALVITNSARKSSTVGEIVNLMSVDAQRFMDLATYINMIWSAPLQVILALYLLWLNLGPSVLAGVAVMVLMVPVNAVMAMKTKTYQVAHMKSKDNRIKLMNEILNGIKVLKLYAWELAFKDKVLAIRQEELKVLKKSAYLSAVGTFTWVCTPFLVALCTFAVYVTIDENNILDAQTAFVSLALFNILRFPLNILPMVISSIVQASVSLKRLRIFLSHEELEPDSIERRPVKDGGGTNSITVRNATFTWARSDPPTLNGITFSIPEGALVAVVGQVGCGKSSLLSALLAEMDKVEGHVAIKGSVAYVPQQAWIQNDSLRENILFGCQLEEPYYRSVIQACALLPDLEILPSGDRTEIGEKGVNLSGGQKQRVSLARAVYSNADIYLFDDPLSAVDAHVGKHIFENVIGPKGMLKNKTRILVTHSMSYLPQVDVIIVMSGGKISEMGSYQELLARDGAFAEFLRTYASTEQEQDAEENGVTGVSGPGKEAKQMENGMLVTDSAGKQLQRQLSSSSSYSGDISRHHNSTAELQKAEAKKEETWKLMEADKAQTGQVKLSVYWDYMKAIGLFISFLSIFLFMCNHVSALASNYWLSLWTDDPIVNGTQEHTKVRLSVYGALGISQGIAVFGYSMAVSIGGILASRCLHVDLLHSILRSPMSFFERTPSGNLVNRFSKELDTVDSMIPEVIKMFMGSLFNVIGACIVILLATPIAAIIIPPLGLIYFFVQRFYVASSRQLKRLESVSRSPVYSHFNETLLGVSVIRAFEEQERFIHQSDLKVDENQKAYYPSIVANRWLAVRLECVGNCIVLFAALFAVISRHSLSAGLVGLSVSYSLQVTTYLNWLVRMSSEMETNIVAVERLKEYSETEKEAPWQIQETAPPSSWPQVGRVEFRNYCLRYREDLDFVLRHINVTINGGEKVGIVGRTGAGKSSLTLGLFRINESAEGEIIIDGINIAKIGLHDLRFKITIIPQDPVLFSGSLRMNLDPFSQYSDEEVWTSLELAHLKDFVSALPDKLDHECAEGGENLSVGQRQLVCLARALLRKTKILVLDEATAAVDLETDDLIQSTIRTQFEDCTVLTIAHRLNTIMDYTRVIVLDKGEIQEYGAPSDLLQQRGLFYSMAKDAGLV

How the values were obtained:
[1] = target: Glucose-regulated protein 78 (GRP78) (human (endogenous in DLD1)) (UniProt P11021); assay: co-IP; endogenous GRP78 and MRP1 in DLD1 cells; lysis in NETN buffer (20 mM Tris-HCl pH 8.0, 100 mM NaCl, 0.5% NP-40, 1 mM EDTA), Protein A/G plus agarose beads with indicated antibodies overnight at 4 °C; also after 20% TAMs-CM-T treatment (more interaction) and in the presence of HA15 (less interaction)
[2] = target: GRP78 (WT), overexpressed full-length GRP78 (human) (UniProt P11021); assay: co-IP; DLD1 cells overexpressing GRP78 (WT), deletion mutants or T453D; lysis in NETN buffer, beads washed three times with NETN buffer; MRP1 detected in the complex of GRP78

- binding [1]: binds
- binding [2]: binds
Substance: multidrug resistance-associated protein MRP1 (from UniProt P33527 1-1531)
